Experimental data as given in the supplement of paper PMC7238544.
Where a name gives a salt, the structure may show the parent alone. ± gives the standard deviation of the averaged measurements. This is one part of the list. The data scatter; read single values as rough.

Tests used:
hAMSC donor 1 [1] = assay: Hoechst total cell count ratio vs vehicle control; higher = more cells (less toxicity)
hAMSC donor 2 [2] = assay: as above
hAMSC donor 1 [3] = assay: transgenic luciferase activity (RLU/mg protein) fold change vs vehicle control (ratio); higher = more transgene expression
hAMSC donor 1 [4] = assay: transfection efficiency (EGFP+ cells / Hoechst count) fold change vs vehicle control (ratio); higher = enhanced transfection
hAMSC donor 2 [5] = assay: as above
hAMSC donor 2 [6] = assay: transgenic luciferase activity (RLU/mg protein) fold change vs vehicle control (ratio); hAMSC are human adipose-derived mesenchymal stem cells given an EGFP-luciferase plasmid by lipofection; higher = more transgene expression
[7] = priming compound concentration 0.2 µM
[8] = priming compound concentration 1.7 µM
[9] = priming compound concentration 13 µM

| SMILES | Hoechst total cell count ratio (hAMSC donor 1 [1]; [7]) | Hoechst total cell count ratio (hAMSC donor 1 [1]; [8]) | Hoechst total cell count ratio (hAMSC donor 1 [1]; [9]) | Hoechst total cell count ratio (hAMSC donor 2 [2]; [7]) | Hoechst total cell count ratio (hAMSC donor 2 [2]; [8]) | Hoechst total cell count ratio (hAMSC donor 2 [2]; [9]) | transgenic luciferase activity (hAMSC donor 1 [3]; [8]) | transfection efficiency (hAMSC donor 1 [4]; [7]) | transfection efficiency (hAMSC donor 1 [4]; [8]) | transfection efficiency (hAMSC donor 1 [4]; [9]) | transfection efficiency (hAMSC donor 2 [5]; [7]) | transfection efficiency (hAMSC donor 2 [5]; [8]) | transfection efficiency (hAMSC donor 2 [5]; [9]) | transgenic luciferase activity (hAMSC donor 1 [3]; [9]) | transgenic luciferase activity (hAMSC donor 1 [3]; [7]) | transgenic luciferase activity (hAMSC donor 2 [6]; [8]) | transgenic luciferase activity (hAMSC donor 2 [6]; [9]) |
| --- | --- | --- | --- | --- | --- | --- | --- | --- | --- | --- | --- | --- | --- | --- | --- | --- | --- |
| CCc1nc(N)nc(N)c1-c1ccc(Cl)cc1 [Pyrimethamine] | 1.55 ± 0.24 | 1.44 ± 0.11 | 1.42 ± 0.17 | 0.635 ± 0.053 | 1.11 ± 0.2 | 1.02 ± 0.12 | 0.525 ± 0.14 | 1.28 ± 0.23 | 1.16 ± 0.19 | 1.45 ± 0.31 | 1.42 ± 0.14 | 1.26 ± 0.08 | 1.28 ± 0.25 | – | – | – | – |
| NNC(=O)c1ccncc1 [Isoniazid] | 1.31 ± 0.075 | 1.13 ± 0.088 | 1.28 ± 0.09 | 1.03 ± 0.17 | 1.07 ± 0.035 | 0.959 ± 0.15 | 0.276 ± 0.091 | 1.26 ± 0.3 | 0.913 ± 0.12 | 1.07 ± 0.48 | 1.19 ± 0.065 | 1.23 ± 0.069 | 1.19 ± 0.31 | – | – | – | – |
| Cn1nnc2c(C(N)=O)ncn2c1=O [Temozolomide] | 1.33 ± 0.021 | 1.3 ± 0.11 | 1.25 ± 0.029 | 0.958 ± 0.29 | 0.965 ± 0.055 | 1.12 ± 0.17 | – | 1.38 ± 0.19 | 1.08 ± 0.23 | 1.01 ± 0.63 | 1.3 ± 0.19 | 1.35 ± 0.17 | 1 ± 0.16 | 1.71 ± 1.9 | – | – | – |
| CCc1oc2ccccc2c1C(=O)c1cc(Br)c(O)c(Br)c1 [Benzbromarone] | 1.31 ± 0.074 | 1.28 ± 0.017 | 1.24 ± 0.077 | 1.1 ± 0.38 | 1.05 ± 0.41 | 1.24 ± 0.11 | – | 1.23 ± 0.17 | 0.824 ± 0.042 | 0.973 ± 0.37 | 1.16 ± 0.26 | 1.36 ± 0.52 | 0.837 ± 0.049 | 0.626 ± 0.26 | – | – | – |
| CCCCc1oc2ccccc2c1C(=O)c1cc(I)c(OCCN(CC)CC)c(I)c1 [Amiodarone hydrochloride] | 1.26 ± 0.053 | 1.2 ± 0.13 | 1.46 ± 0.2 | 0.973 ± 0.52 | 1.34 ± 0.12 | 1.55 ± 0.12 | – | 1.04 ± 0.038 | 1.22 ± 0.21 | 0.592 ± 0.066 | 1.59 ± 0.77 | 1.42 ± 0.071 | 0.646 ± 0.11 | 0.735 ± 0.11 | – | – | – |
| CCC1=C(C)CN(C(=O)NCCc2ccc(S(=O)(=O)NC(=O)N[C@H]3CC[C@H](C)CC3)cc2)C1=O [Glimepiride] | 1.19 ± 0.12 | 1.12 ± 0.065 | 1.03 ± 0.099 | 1.38 ± 0.17 | 1.266 ± 0.01 | 1.35 ± 0.047 | – | 0.928 ± 0.34 | 0.834 ± 0.086 | 1.22 ± 0.092 | 0.961 ± 0.27 | 0.988 ± 0.066 | 0.949 ± 0.22 | 1.41 ± 0.32 | – | – | – |
| CC(C)OC(=O)CCC/C=C\C[C@@H]1[C@@H](CC[C@@H](O)CCc2ccccc2)[C@H](O)C[C@@H]1O [Latanoprost] | 1.33 ± 0.051 | 1.18 ± 0.042 | 1.16 ± 0.092 | 1.04 ± 0.16 | 1.24 ± 0.083 | 1.57 ± 0.13 | – | 0.622 ± 0.14 | 0.679 ± 0.046 | 0.382 ± 0.086 | 1.36 ± 0.27 | 1.05 ± 0.13 | 0.628 ± 0.1 | 0.538 ± 0.25 | – | – | – |
| C=CCc1ccc(O)c(-c2ccc(O)c(CC=C)c2)c1 [Honokiol] | 1.21 ± 0.12 | 1.08 ± 0.088 | 0.804 ± 0.082 | 0.738 ± 0.21 | 0.895 ± 0.058 | 0.508 ± 0.14 | – | 1.02 ± 0.23 | 1.23 ± 0.21 | 0.994 ± 0.23 | 1.52 ± 0.27 | 1.63 ± 0.36 | 1.31 ± 0.18 | 0.715 ± 0.64 | – | – | – |
| CN(C)[C@@H]1C(O)=C(C(=O)NCN2CCCC2)C(=O)[C@@]2(O)C(O)=C3C(=O)c4c(O)cccc4[C@@](C)(O)[C@H]3C[C@@H]12 [Rolitetracycline] | 1.58 ± 0.097 | 1.54 ± 0.068 | 1.24 ± 0.07 | 1.135 ± 0.0072 | 1.11 ± 0.055 | 1.06 ± 0.071 | – | 0.862 ± 0.14 | 0.823 ± 0.2 | 1.05 ± 0.14 | 1.14 ± 0.37 | 1.05 ± 0.091 | 0.851 ± 0.46 | 0.736 ± 0.57 | – | – | – |
| Cc1cccc(CCN2CCC(C(=O)c3ccc(NS(C)(=O)=O)cc3)CC2)n1 [E-4031 dihydrochloride] | – | – | – | – | – | – | – | 1.33 ± 0.25 | 1 ± 0.11 | 0.985 ± 0.35 | 0.855 ± 0.091 | 0.938 ± 0.06 | 0.899 ± 0.21 | – | 0.876 ± 0.26 | – | – |
| COc1c(N2C[C@@H]3CCCN[C@@H]3C2)c(F)cc2c(=O)c(C(=O)O)cn(C3CC3)c12 [Moxifloxacin hydrochloride] | 1.51 ± 0.17 | 1.31 ± 0.014 | 1.47 ± 0.13 | 0.96 ± 0.15 | 0.867 ± 0.021 | 1.08 ± 0.18 | – | 0.875 ± 0.18 | 1.12 ± 0.24 | 0.838 ± 0.12 | 1.03 ± 0.25 | 1.6 ± 0.29 | 1.07 ± 0.12 | – | – | 1 ± 0.27 | – |
| C[C@@H](O)[C@H]1C(=O)N2C(C(=O)O)=C(S[C@@H]3CN[C@H](C(=O)N(C)C)C3)[C@H](C)[C@H]12 [Meropenem] | 1.21 ± 0.21 | 1.23 ± 0.11 | 1.23 ± 0.097 | 1.27 ± 0.07 | 1.28 ± 0.06 | 1.46 ± 0.068 | – | 1.14 ± 0.13 | 1.13 ± 0.47 | 1.09 ± 0.21 | 0.95 ± 0.17 | 0.971 ± 0.086 | 1.04 ± 0.12 | 0.51 ± 0.22 | – | – | – |
| CCOc1cc(N)c(Cl)cc1C(=O)NCC1CN(Cc2ccc(F)cc2)CCO1 (configuration not stated) [Mosapride citrate] | 1.33 ± 0.071 | 1.38 ± 0.24 | 1.38 ± 0.22 | 0.953 ± 0.14 | 1.04 ± 0.14 | 1.48 ± 0.036 | – | 1.64 ± 0.15 | 1.61 ± 0.22 | 1.16 ± 0.2 | 1.18 ± 0.16 | 1.14 ± 0.089 | 1.2 ± 0.16 | – | – | 0.5433 ± 0.0032 | – |
| Nc1nc(Cl)nc2c1ncn2[C@@H]1O[C@H](CO)[C@@H](O)[C@H]1O [2-Chloroadenosine] | 1.15 ± 0.061 | 1.16 ± 0.037 | 1.18 ± 0.014 | 1.39 ± 0.029 | 1.34 ± 0.039 | 1.46 ± 0.2 | – | 0.853 ± 0.056 | 0.911 ± 0.087 | 0.86 ± 0.13 | 0.918 ± 0.063 | 0.909 ± 0.03 | 0.774 ± 0.12 | 0.739 ± 0.3 | – | – | – |
| CN(C)CCC(c1ccc(Cl)cc1)c1ccccn1 (configuration not stated) [Chlorpheniramine maleate] | 1.07 ± 0.059 | 1.24 ± 0.17 | 1.32 ± 0.12 | 0.828 ± 0.23 | 1.05 ± 0.094 | 1.04 ± 0.023 | – | 1.16 ± 0.28 | 1.4 ± 0.15 | 1.19 ± 0.26 | 1.16 ± 0.4 | 1.18 ± 0.072 | 1.14 ± 0.2 | – | – | – | 1.03 ± 0.51 |
| O=C1Nc2ccccc2/C1=C1/Nc2ccccc2C1=O [Indirubin] | 1.66 ± 0.019 | 1.48 ± 0.058 | 1.62 ± 0.22 | 0.963 ± 0.066 | 0.968 ± 0.054 | 1.08 ± 0.12 | – | 1.12 ± 0.34 | 1.13 ± 0.27 | 0.732 ± 0.14 | 1.02 ± 0.14 | 1.32 ± 0.073 | 1.31 ± 0.17 | – | – | 0.599 ± 0.034 | – |

Already shown: two of the compounds above.

| SMILES | Hoechst total cell count ratio (hAMSC donor 1 [1]; [7]) | Hoechst total cell count ratio (hAMSC donor 1 [1]; [8]) | Hoechst total cell count ratio (hAMSC donor 1 [1]; [9]) | Hoechst total cell count ratio (hAMSC donor 2 [2]; [7]) | Hoechst total cell count ratio (hAMSC donor 2 [2]; [8]) | Hoechst total cell count ratio (hAMSC donor 2 [2]; [9]) | transgenic luciferase activity (hAMSC donor 1 [3]; [8]) | transfection efficiency (hAMSC donor 1 [4]; [7]) | transfection efficiency (hAMSC donor 1 [4]; [8]) | transfection efficiency (hAMSC donor 1 [4]; [9]) | transfection efficiency (hAMSC donor 2 [5]; [7]) | transfection efficiency (hAMSC donor 2 [5]; [8]) | transfection efficiency (hAMSC donor 2 [5]; [9]) | transgenic luciferase activity (hAMSC donor 1 [3]; [9]) | transgenic luciferase activity (hAMSC donor 1 [3]; [7]) | transgenic luciferase activity (hAMSC donor 2 [6]; [8]) | transgenic luciferase activity (hAMSC donor 2 [6]; [9]) |
| --- | --- | --- | --- | --- | --- | --- | --- | --- | --- | --- | --- | --- | --- | --- | --- | --- | --- |
| COc1c(N2C[C@@H]3CCCN[C@@H]3C2)c(F)cc2c(=O)c(C(=O)O)cn(C3CC3)c12 [Moxifloxacin hydrochloride] | 1.51 ± 0.17 | 1.31 ± 0.014 | 1.47 ± 0.13 | 0.96 ± 0.15 | 0.867 ± 0.021 | 1.08 ± 0.18 | – | 0.875 ± 0.18 | 1.12 ± 0.24 | 0.838 ± 0.12 | 1.03 ± 0.25 | 1.6 ± 0.29 | 1.07 ± 0.12 | – | – | 1 ± 0.27 | – |
| C[C@@H](O)[C@H]1C(=O)N2C(C(=O)O)=C(S[C@@H]3CN[C@H](C(=O)N(C)C)C3)[C@H](C)[C@H]12 [Meropenem] | 1.21 ± 0.21 | 1.23 ± 0.11 | 1.23 ± 0.097 | 1.27 ± 0.07 | 1.28 ± 0.06 | 1.46 ± 0.068 | – | 1.14 ± 0.13 | 1.13 ± 0.47 | 1.09 ± 0.21 | 0.95 ± 0.17 | 0.971 ± 0.086 | 1.04 ± 0.12 | 0.51 ± 0.22 | – | – | – |
